Test results: publication doi:10.1101/2021.11.30.470617

Sequences of proteins named here, by UniProt entry; tags and fusion partners are left off. Residues count along the entry.
UniProt Q9Y6M4: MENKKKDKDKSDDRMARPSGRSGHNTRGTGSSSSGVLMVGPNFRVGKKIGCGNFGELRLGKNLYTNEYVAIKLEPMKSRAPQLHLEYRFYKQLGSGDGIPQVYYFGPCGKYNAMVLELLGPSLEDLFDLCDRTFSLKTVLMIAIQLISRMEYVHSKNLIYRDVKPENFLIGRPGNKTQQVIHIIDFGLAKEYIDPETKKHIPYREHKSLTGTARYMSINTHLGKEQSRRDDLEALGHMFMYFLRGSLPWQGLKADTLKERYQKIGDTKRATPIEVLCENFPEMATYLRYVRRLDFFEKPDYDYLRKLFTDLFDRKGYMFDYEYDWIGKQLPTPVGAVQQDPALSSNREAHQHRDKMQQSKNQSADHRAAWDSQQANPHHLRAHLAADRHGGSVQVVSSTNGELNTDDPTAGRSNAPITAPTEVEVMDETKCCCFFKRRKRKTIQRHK
UniProt Q9HCP0: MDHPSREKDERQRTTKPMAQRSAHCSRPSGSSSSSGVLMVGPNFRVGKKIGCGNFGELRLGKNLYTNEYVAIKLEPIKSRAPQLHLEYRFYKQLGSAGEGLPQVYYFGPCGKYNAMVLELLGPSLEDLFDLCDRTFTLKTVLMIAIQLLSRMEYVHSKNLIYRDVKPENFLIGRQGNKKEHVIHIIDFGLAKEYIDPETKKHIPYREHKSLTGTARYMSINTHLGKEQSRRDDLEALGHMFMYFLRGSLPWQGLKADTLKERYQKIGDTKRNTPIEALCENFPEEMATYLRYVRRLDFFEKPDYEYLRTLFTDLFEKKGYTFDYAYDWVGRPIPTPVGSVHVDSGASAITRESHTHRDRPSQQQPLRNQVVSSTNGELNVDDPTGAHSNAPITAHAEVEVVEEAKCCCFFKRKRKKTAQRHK
UniProt P78368: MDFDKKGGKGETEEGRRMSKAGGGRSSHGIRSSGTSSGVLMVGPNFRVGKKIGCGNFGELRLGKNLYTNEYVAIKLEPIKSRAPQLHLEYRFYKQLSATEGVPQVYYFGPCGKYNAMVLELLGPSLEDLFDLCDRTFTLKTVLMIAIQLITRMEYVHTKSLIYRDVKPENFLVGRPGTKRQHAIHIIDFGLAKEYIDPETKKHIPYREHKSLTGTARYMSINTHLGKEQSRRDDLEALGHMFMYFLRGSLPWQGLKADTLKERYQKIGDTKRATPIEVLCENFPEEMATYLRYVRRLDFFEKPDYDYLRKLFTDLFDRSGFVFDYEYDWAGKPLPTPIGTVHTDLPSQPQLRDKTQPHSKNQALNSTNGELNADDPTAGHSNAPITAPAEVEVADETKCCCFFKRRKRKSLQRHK
UniProt Q9ULC8: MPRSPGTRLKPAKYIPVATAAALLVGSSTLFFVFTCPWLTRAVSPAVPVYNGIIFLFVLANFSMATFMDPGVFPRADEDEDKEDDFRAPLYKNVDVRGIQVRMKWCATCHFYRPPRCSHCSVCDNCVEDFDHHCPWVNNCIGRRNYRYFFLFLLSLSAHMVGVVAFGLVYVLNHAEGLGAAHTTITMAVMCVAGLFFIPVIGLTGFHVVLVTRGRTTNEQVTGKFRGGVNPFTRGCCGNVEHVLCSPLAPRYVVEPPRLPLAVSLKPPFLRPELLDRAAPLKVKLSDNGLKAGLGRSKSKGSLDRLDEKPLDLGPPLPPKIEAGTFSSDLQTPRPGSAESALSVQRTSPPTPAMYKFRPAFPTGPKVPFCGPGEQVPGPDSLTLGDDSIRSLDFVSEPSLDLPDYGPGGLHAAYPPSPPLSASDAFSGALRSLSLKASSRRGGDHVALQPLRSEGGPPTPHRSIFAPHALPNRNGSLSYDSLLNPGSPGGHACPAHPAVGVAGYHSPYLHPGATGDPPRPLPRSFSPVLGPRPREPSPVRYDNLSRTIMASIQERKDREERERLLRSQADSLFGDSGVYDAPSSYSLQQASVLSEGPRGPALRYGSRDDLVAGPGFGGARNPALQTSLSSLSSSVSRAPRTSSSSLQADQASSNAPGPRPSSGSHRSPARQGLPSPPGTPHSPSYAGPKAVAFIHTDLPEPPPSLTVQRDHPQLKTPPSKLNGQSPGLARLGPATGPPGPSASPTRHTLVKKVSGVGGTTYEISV
UniProt P35222: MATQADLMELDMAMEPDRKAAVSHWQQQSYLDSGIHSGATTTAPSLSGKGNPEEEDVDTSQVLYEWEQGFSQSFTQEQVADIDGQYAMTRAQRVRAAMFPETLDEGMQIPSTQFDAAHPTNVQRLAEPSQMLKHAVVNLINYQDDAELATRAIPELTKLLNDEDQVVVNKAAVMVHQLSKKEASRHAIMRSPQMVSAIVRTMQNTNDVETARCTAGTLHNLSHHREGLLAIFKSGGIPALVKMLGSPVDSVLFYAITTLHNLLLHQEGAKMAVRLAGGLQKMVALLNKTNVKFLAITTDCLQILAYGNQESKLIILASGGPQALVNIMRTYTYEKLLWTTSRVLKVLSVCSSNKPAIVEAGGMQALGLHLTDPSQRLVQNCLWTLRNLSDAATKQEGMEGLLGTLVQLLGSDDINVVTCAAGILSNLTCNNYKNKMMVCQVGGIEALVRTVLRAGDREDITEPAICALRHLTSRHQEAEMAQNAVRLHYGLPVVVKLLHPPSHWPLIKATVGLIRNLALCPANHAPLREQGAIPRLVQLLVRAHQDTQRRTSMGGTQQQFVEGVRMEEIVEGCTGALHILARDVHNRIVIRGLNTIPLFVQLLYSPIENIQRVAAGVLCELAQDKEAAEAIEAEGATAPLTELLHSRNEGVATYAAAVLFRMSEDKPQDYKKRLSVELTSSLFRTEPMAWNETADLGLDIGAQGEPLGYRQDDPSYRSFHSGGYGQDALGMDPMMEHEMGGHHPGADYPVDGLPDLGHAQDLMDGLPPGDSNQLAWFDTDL
UniProt Q9HCU4, residues 32-2923: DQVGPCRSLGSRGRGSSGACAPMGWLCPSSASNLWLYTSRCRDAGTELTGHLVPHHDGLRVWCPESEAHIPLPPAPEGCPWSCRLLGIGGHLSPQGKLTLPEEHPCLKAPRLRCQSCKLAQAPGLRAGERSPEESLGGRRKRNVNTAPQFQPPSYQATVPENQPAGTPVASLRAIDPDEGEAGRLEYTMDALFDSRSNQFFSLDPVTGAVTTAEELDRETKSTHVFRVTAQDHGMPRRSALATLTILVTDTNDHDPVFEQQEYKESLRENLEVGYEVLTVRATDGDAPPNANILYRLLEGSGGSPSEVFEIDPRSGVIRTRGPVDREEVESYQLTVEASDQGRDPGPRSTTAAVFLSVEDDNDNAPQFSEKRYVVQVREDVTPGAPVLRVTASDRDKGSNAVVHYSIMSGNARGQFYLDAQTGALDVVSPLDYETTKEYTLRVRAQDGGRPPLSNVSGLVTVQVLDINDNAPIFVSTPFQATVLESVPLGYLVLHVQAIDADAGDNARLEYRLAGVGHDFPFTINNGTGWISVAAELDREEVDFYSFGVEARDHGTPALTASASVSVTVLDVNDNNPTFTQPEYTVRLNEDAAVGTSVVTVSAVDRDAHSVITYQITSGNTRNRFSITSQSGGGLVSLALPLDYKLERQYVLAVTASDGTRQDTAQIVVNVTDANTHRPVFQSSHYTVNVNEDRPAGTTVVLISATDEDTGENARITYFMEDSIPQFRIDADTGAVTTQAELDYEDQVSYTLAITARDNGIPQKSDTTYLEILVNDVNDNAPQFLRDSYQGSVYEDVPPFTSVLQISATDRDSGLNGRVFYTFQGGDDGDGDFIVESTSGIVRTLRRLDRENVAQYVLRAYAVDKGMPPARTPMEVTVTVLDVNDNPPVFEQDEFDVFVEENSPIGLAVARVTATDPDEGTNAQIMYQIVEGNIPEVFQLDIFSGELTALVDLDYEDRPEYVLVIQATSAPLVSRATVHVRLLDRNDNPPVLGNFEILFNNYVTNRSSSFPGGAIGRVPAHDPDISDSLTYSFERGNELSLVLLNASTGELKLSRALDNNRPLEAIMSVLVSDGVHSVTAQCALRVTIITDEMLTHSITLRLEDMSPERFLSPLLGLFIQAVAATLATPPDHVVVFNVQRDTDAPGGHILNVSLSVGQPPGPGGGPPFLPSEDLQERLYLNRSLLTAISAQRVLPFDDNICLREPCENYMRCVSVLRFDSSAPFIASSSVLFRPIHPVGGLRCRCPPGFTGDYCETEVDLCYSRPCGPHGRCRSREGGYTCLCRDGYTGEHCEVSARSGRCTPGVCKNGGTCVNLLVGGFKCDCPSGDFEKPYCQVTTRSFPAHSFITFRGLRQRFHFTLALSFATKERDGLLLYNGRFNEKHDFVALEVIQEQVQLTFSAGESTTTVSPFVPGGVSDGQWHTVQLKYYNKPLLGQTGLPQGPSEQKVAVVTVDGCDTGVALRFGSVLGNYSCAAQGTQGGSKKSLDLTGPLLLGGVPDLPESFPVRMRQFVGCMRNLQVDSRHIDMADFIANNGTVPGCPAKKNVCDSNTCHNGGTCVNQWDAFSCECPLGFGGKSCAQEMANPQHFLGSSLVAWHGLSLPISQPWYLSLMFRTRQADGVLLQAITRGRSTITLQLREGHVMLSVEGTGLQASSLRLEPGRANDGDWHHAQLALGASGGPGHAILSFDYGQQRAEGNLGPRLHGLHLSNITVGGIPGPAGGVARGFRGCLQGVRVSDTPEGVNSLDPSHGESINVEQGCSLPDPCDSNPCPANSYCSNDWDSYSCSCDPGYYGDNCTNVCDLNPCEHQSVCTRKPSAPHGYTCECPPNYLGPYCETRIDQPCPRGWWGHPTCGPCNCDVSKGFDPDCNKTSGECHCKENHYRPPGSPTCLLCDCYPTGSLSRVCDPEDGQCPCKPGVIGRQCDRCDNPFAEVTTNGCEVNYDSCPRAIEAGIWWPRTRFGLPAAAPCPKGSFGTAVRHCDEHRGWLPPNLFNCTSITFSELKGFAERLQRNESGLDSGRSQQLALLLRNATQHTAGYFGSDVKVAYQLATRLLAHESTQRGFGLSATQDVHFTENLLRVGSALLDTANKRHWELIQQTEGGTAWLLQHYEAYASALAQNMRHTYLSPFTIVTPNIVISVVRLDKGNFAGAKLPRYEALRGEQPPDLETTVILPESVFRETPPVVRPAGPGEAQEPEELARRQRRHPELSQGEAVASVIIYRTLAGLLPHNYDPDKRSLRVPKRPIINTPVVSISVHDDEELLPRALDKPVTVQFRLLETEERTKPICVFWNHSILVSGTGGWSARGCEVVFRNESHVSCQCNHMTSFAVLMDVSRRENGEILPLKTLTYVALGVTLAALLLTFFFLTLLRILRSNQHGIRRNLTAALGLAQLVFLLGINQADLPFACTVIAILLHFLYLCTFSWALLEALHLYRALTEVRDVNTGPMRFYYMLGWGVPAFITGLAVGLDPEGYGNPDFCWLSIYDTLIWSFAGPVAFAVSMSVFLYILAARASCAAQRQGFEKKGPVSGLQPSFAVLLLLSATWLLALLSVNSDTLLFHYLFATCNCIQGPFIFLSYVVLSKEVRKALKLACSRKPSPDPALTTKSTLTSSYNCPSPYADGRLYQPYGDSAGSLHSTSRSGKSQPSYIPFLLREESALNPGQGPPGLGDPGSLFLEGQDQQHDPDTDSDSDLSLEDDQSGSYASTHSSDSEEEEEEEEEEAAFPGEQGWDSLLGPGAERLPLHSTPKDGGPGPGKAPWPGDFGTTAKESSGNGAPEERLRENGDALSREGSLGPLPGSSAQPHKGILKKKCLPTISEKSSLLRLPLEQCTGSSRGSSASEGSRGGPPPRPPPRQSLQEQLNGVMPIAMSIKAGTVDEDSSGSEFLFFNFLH
UniProt O15169: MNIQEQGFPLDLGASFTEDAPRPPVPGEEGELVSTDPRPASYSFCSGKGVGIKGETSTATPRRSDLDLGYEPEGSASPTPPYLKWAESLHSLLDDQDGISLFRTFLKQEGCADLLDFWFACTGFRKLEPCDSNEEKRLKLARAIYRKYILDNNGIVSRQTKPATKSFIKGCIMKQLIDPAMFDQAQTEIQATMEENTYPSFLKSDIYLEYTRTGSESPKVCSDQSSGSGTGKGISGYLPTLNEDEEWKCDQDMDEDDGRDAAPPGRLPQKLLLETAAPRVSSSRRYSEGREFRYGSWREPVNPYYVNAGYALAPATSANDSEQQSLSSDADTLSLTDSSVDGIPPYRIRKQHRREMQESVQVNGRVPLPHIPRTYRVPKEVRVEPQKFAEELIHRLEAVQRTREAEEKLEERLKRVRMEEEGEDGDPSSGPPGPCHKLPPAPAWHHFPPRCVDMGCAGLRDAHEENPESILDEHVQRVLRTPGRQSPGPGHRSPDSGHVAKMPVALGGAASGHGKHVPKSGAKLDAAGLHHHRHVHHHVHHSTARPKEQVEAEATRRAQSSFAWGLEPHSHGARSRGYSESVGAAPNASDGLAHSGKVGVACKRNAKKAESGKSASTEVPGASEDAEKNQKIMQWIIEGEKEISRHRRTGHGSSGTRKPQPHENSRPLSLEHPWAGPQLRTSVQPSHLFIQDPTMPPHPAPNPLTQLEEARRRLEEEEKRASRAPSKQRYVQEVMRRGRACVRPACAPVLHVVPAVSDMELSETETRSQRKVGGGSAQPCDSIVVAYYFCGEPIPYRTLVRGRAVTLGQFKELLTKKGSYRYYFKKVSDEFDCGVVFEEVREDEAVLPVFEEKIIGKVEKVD

Experiments:
Assay in all cases: proximity labelling
[1] = molecular target: mT-V5-CK1γ3 (miniTurbo-V5 fusion of casein kinase 1 gamma 3) (human) (UniProt Q9Y6M4)
[2] = molecular target: mT-V5-CK1γ1 (miniTurbo-V5 fusion of casein kinase 1 gamma 1) (human) (UniProt Q9HCP0)
[3] = molecular target: mT-V5-CK1γ2 (miniTurbo-V5 fusion of casein kinase 1 gamma 2) (human) (UniProt P78368)
[4] = molecular target: mT-V5-CK1γ3 (miniTurbo-V5 fusion of casein kinase 1 gamma 3) (human) (UniProt Q9Y6M4); remark: listed apart in the source
[5] = molecular target: mT-V5-CK1γ1 (miniTurbo-V5 fusion of casein kinase 1 gamma 1) (human) (UniProt Q9HCP0); remark: listed apart in the source
[6] = molecular target: mT-V5-CK1γ2 (miniTurbo-V5 fusion of casein kinase 1 gamma 2) (human) (UniProt P78368); remark: listed apart in the source

Measured: binding

ZDHHC8 (Zinc Finger DHHC-Type Palmitoyltransferase 8) (from UniProt Q9ULC8 1-765) (enzyme)
binds: [1] | [2] | [3]

β-catenin (CTNNB1) (from UniProt P35222 1-781)
binds: all assays above

PIK3R3 (Phosphoinositide-3-Kinase Regulatory Subunit 3) (from UniProt Q92569 1-461)
binds: [1] | [2] | [3]

CELSR2 (from UniProt Q9HCU4 32-2923) (receptor)
binds: [1] | [2] | [3]

AXIN1 (from UniProt O15169 1-862)
binds: [4] | [5] | [6]

DVL2 (from UniProt O14641 1-736)
binds: [1] | [2] | [3]

B1: PRICKLE1 (protein, UniProt Q96MT3 1-831)
chain: MPLEMEPKMSKLAFGCQRSSTSDDDSGCALEEYAWVPPGLRPEQIQLYFACLPEEKVPYVNSPGEKHRIKQLLYQLPPHDNEVRYCQSLSEEEKKELQVFSAQRKKEALGRGTIKLLSRAVMHAVCEQCGLKINGGEVAVFASRAGPGVCWHPSCFVCFTCNELLVDLIYFYQDGKIHCGRHHAELLKPRCSACDEIIFADECTEAEGRHWHMKHFCCLECETVLGGQRYIMKDGRPFCCGCFESLYAEYCETCGEHIGVDHAQMTYDGQHWHATEACFSCAQCKASLLGCPFLPKQGQIYCSKTCSLGEDVHASDSSDSAFQSARSRDSRRSVRMGKSSRSADQCRQSLLLSPALNYKFPGLSGNADDTLSRKLDDLSLSRQGTSFASEEFWKGRVEQETPEDPEEWADHEDYMTQLLLKFGDKSLFQPQPNEMDIRASEHWISDNMVKSKTELKQNNQSLASKKYQSDMYWAQSQDGLGDSAYGSHPGPASSRRLQELELDHGASGYNHDETQWYEDSLECLSDLKPEQSVRDSMDSLALSNITGASVDGENKPRPSLYSLQNFEEMETEDCEKMSNMGTLNSSMLHRSAESLKSLSSELCPEKILPEEKPVHLPVLRRSKSQSRPQQVKFSDDVIDNGNYDIEIRQPPMSERTRRRVYNFEERGSRSHHHRRRRSRKSRSDNALNLVTERKYSPKDRLRLYTPDNYEKFIQNKSAREIQAYIQNADLYGQYAHATSDYGLQNPGMNRFLGLYGEDDDSWCSSSSSSSDSEEEGYFLGQPIPQPRPQRFAYYTDDLSSPPSALPTPQFGQRTTKSKKKKGHKGKNCIIS
binds: [1] | [2] | [3]

Like-named read-outs stand apart in the source and are kept apart here. Results are given in words; binding and its absence hold for the method and conditions named. Binding seen in cells or lysates may run through a third protein. These calls come from enrichment with a bait or labelling near it, and not all partners need be listed.
